Test results published in article PMC6634424.

Biological target: T1, ZRK1/RKS1 (Arabidopsis thaliana) (UniProt Q9SVY5)
T1 sequence: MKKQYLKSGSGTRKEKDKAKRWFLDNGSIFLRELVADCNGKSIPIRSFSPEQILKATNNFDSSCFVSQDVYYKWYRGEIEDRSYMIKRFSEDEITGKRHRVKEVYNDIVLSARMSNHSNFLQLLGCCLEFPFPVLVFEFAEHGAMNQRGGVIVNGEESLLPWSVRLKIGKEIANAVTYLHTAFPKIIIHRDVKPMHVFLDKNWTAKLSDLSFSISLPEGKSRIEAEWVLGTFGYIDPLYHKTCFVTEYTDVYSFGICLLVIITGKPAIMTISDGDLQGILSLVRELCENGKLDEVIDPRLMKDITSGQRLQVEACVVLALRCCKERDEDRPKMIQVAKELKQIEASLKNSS
Assay: two-hybrid; Y3H: LexA-ZRK1/RKS1 bait, 46 PBL preys, AvrAC expressed from the yeast ho locus

## PBL29 (from UniProt Q7Y224)
  binding: binds

Results are given in words; binding and its absence hold for the method and conditions named. Binding can be weak; no strength is given.
